Source: the supplement of paper PMC11732987, “Enantioselective OTUD7B fragment discovery through chemoproteomics screening and high-throughput optimisation” (Communications Chemistry, 2025)
The list shows a part of the results. The data scatter; read single values as rough.

By UniProt entry, the sequences of proteins in these tests, tags left out. Where a name states a change or a piece, a line headed by the entry shows the natural chain unless it says otherwise. Residues count along the entry.
UniProt Q96SB3: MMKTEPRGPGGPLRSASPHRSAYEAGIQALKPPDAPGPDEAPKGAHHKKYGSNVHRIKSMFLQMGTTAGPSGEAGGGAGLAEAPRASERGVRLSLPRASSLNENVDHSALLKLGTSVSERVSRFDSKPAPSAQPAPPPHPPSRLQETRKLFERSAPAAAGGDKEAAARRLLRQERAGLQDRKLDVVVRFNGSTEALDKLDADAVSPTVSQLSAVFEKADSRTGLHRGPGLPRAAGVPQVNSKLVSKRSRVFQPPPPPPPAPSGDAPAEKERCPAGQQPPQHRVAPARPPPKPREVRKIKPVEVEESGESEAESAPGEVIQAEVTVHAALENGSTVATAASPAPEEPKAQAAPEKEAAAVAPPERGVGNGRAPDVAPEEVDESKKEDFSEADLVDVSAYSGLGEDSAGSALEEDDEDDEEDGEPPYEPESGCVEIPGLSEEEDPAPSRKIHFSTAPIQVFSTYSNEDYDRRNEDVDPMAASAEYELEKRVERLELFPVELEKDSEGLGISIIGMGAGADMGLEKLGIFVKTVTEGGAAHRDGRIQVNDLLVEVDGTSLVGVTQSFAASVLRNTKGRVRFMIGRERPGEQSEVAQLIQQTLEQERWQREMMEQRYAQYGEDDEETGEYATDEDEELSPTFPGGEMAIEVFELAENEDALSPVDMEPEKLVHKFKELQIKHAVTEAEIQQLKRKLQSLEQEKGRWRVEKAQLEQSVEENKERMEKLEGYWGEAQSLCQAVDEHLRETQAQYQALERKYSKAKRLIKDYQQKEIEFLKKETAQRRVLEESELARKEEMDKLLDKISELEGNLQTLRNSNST
UniProt O43663: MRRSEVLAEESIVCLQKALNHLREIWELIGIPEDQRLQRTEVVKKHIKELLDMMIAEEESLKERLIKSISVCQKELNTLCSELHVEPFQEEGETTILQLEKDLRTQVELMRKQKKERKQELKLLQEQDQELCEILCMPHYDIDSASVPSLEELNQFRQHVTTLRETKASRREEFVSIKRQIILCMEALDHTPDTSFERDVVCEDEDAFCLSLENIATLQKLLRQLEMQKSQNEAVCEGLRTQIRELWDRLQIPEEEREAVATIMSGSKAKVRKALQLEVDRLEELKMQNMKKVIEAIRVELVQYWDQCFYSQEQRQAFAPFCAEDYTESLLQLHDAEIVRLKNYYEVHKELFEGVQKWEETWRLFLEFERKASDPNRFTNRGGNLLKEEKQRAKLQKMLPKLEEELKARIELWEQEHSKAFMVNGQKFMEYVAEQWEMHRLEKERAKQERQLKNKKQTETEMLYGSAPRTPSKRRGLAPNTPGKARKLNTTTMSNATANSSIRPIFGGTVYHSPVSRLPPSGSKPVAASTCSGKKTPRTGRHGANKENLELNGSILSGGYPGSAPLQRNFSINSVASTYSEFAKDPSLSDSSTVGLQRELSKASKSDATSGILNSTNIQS
UniProt O14802: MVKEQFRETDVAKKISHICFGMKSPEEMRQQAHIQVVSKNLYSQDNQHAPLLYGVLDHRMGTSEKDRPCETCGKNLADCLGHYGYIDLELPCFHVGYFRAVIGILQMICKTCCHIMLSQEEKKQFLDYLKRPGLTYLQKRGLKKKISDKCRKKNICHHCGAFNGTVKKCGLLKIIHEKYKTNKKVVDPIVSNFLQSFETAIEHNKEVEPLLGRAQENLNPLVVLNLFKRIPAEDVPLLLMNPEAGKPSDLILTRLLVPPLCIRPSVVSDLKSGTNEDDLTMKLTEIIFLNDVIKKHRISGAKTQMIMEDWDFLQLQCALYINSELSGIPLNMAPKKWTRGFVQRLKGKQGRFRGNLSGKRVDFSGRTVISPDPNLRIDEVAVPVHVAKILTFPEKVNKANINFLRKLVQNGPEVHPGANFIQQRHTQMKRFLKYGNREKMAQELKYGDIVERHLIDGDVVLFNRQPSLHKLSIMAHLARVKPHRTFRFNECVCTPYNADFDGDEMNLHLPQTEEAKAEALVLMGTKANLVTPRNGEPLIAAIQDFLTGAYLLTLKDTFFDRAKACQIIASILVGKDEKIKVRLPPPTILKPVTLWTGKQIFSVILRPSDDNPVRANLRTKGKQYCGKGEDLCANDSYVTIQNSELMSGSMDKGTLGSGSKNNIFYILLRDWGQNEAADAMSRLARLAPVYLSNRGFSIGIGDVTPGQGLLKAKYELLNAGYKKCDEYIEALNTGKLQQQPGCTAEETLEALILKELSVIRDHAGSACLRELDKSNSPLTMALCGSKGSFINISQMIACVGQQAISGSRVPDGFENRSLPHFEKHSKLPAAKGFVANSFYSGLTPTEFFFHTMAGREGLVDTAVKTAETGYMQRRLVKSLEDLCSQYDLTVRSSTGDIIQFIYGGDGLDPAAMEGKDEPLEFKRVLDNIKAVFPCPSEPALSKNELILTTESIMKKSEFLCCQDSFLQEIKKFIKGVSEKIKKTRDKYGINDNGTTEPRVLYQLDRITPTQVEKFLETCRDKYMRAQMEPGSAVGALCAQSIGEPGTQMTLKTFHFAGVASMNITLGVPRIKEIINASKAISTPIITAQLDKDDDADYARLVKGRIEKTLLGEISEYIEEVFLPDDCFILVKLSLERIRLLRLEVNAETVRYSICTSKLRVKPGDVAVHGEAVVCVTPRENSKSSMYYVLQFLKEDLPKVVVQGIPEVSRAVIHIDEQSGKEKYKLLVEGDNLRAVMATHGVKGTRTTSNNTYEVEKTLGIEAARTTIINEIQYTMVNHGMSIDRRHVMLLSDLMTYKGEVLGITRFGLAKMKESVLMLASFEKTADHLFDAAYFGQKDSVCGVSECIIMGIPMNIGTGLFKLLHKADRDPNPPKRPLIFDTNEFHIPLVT
UniProt P41743, whole entry, looked up: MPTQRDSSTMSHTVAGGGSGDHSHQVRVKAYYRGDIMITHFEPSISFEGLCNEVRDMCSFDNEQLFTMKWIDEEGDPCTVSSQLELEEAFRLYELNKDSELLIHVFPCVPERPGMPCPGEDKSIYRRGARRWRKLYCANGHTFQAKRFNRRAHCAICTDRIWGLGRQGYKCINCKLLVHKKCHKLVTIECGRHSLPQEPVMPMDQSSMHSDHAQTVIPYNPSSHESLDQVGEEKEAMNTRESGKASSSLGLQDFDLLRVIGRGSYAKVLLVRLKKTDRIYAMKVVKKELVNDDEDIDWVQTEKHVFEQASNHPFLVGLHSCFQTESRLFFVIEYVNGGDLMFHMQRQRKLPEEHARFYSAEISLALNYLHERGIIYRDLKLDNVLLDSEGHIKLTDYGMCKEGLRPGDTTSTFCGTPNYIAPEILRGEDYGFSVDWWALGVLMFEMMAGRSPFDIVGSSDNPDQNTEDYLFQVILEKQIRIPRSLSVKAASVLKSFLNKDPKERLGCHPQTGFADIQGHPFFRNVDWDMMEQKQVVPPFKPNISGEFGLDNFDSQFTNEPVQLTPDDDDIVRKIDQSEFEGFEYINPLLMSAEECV
UniProt O00411: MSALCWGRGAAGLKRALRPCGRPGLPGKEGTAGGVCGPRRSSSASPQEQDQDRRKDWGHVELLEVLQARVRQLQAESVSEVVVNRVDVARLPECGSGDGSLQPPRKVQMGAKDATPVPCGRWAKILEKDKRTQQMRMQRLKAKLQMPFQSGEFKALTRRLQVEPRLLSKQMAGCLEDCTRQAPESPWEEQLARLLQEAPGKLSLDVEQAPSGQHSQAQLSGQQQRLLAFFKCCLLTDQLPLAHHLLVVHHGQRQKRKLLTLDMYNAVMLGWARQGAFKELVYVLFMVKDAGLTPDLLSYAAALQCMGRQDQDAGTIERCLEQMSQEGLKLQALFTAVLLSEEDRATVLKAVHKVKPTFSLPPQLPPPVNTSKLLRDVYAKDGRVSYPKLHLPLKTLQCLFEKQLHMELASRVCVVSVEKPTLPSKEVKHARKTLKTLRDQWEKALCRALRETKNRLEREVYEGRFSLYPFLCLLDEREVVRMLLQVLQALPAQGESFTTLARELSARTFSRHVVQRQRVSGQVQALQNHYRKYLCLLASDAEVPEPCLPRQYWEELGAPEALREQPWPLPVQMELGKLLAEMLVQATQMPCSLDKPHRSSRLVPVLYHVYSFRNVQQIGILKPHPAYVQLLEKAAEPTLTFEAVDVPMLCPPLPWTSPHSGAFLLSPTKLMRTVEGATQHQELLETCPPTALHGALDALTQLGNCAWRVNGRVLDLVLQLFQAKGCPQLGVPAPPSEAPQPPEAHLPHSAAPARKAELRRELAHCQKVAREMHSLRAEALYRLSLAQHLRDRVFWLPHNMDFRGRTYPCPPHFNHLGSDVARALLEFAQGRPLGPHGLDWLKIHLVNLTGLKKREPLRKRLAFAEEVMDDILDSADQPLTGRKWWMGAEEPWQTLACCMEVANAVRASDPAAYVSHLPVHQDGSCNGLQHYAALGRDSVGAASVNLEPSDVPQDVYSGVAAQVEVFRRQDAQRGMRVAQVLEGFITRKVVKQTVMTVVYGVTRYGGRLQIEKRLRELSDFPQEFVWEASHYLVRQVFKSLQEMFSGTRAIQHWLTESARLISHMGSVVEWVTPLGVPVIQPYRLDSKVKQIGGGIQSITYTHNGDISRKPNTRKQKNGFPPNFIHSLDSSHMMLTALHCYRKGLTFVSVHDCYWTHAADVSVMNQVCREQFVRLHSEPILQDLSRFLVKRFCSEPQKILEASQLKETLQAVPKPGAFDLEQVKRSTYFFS
UniProt Q5H9R7, 822-843: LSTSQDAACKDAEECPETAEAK
UniProt O43900: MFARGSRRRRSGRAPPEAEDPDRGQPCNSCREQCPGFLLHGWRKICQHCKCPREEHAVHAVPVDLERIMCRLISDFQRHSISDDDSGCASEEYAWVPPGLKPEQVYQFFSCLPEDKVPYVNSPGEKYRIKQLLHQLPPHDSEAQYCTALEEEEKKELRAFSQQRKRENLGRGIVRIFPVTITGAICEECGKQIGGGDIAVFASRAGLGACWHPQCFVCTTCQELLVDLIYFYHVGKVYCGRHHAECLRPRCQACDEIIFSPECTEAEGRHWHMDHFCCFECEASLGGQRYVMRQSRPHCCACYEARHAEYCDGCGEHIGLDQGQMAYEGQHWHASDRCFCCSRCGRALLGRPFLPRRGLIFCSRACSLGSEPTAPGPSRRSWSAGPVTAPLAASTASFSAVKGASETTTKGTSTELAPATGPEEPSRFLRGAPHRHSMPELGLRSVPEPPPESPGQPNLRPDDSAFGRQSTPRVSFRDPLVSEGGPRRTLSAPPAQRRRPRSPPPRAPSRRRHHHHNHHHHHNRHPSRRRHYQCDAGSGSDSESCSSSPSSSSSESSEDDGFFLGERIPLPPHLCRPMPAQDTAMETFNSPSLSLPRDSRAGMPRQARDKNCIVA
UniProt O94806, 13-33: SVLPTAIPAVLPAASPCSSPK
UniProt P05771: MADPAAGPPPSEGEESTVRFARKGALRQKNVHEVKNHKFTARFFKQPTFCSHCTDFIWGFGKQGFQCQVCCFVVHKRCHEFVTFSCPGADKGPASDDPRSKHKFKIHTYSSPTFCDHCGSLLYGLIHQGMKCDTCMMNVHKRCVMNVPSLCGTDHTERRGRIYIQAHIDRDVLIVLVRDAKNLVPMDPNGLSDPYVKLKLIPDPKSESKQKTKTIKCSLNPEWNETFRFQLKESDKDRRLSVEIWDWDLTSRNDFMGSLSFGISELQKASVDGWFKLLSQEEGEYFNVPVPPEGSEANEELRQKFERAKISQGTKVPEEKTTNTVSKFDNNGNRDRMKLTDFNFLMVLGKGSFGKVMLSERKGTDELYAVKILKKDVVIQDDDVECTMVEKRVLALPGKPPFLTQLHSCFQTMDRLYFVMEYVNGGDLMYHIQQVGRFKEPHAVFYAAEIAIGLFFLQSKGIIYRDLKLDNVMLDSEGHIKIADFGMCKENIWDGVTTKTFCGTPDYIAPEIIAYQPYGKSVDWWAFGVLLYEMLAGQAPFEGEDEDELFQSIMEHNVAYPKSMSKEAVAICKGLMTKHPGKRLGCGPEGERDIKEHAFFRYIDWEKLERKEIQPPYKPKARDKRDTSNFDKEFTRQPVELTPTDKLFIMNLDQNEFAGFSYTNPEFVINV
UniProt Q15172: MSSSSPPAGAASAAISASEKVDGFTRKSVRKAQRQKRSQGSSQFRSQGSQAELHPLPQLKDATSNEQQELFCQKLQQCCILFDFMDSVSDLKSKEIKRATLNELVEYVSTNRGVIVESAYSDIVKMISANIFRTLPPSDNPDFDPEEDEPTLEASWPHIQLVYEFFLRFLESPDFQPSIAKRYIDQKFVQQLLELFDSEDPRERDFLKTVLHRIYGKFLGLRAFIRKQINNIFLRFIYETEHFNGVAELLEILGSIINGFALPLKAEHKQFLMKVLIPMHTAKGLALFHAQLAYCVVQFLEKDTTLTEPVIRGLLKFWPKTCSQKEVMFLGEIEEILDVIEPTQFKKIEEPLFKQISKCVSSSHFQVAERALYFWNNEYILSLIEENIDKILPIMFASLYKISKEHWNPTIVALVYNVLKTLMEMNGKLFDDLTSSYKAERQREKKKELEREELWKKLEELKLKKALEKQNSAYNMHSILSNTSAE
UniProt Q9ULL5, 976-997: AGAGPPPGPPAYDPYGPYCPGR

compound: ClCC(=O)N[C@@H]1CCCc2ccccc12; test: log2 mean competition ratio of IA-DTB cysteine labelling (DMSO/compound) (log2 ratio); higher = stronger cysteine engagement by compound; settings: 50 µM; treatment time: 4 h; cell line lysate: HEK293T
Method: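 IA-DTB competitive cysteine chemoproteomics in HEK293T RIPA lysate. Lysates were treated with compound 29 or 30 at 50 or 200 µM for 4 h, then IA-DTB (500 µM, 1 h), trypsin-digested, NeutrAvidin-enriched and analysed by diaPASEF. Competition ratio = intensity DMSO / intensity compound (n=4 treated, n=64 DMSO); binding: mean log2 CR ≥ 1 and p ≤ 0.05 plus QC filters. Target is the cysteine site.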

Row | Target | log2 mean competition ratio
1 | PPP1R3G C225 | 0.138
2 | PPP1R9B C272 (UniProt Q96SB3) | 0.366
3 | PRKDC C4106 (UniProt P78527) | 0.359
4 | PRC1 C14 (UniProt O43663) | -0.251
5 | POLR3A C767 (UniProt O14802) | 0.075
6 | PRKCI C400 (UniProt P41743) | -0.0903
7 | POLR3A C883 (UniProt O14802) | 0.394
8 | PREP C255 | 0.0972
9 | PPIP5K2 C615 | -0.0379
10 | POLRMT C119 (UniProt O00411) | 0.099
11 | PPARGC1B C316 (UniProt Q86YN6) | 0.314
12 | PPP6R3_(C830,C830,C836,C836) (UniProt Q5H9R7) | -0.413
13 | PREP C25 | 0.216
14 | PRICKLE3 C366 (UniProt O43900) | -0.219
15 | PRKD3 C29 (UniProt O94806) | -0.26
16 | PRKCH C501 (UniProt P24723) | -0.0884
17 | PPM1K C97 | -0.0964
18 | PRC1 C72 (UniProt O43663) | -0.119
19 | PRKCB C386 (UniProt P05771) | -0.689
20 | PPP2R5A C72 (UniProt Q15172) | -0.177
21 | PRR12 C994 (UniProt Q9ULL5) | -0.0782

same assay, conditions: 200 µM; treatment time: 4 h; cell line lysate: HEK293T

Row | Target | log2 mean competition ratio
22 | PPP1R3G C225 | -0.26
23 | PPP1R9B C272 (UniProt Q96SB3) | -0.477
24 | PRKDC C4106 (UniProt P78527) | 0.155
25 | PRC1 C14 (UniProt O43663) | -0.0294
26 | POLR3A C767 (UniProt O14802) | 0.0201
27 | PRKCI C400 (UniProt P41743) | -0.0519
28 | PREP C255 | -0.19
29 | PPIP5K2 C615 | -0.0158
30 | POLRMT C119 (UniProt O00411) | 0.343
31 | PPARGC1B C316 (UniProt Q86YN6) | 0.185
32 | PPP6R3_(C830,C830,C836,C836) (UniProt Q5H9R7) | 0.232
33 | PREP C25 | -0.169
34 | PRICKLE3 C366 (UniProt O43900) | -0.474
35 | PRKD3 C29 (UniProt O94806) | -0.0228
36 | PRKCH C501 (UniProt P24723) | 0.216
37 | PPM1K C97 | -0.0519
38 | PRC1 C72 (UniProt O43663) | -0.179
39 | PRKCB C386 (UniProt P05771) | 0.0409
40 | PPP2R5A C72 (UniProt Q15172) | 0.364
41 | PRR12 C994 (UniProt Q9ULL5) | 0.288
